From the supplement of paper PMC11732987, “Enantioselective OTUD7B fragment discovery through chemoproteomics screening and high-throughput optimisation” (Communications Chemistry, 2025)
The other results are listed elsewhere or left out. The data scatter; read single values as rough.

The chains behind the UniProt entries cited, without tags or fusion partners. Where a name states a change or a piece, a line headed by the entry shows the natural chain unless it says otherwise. Residues count along the entry.
UniProt P57678: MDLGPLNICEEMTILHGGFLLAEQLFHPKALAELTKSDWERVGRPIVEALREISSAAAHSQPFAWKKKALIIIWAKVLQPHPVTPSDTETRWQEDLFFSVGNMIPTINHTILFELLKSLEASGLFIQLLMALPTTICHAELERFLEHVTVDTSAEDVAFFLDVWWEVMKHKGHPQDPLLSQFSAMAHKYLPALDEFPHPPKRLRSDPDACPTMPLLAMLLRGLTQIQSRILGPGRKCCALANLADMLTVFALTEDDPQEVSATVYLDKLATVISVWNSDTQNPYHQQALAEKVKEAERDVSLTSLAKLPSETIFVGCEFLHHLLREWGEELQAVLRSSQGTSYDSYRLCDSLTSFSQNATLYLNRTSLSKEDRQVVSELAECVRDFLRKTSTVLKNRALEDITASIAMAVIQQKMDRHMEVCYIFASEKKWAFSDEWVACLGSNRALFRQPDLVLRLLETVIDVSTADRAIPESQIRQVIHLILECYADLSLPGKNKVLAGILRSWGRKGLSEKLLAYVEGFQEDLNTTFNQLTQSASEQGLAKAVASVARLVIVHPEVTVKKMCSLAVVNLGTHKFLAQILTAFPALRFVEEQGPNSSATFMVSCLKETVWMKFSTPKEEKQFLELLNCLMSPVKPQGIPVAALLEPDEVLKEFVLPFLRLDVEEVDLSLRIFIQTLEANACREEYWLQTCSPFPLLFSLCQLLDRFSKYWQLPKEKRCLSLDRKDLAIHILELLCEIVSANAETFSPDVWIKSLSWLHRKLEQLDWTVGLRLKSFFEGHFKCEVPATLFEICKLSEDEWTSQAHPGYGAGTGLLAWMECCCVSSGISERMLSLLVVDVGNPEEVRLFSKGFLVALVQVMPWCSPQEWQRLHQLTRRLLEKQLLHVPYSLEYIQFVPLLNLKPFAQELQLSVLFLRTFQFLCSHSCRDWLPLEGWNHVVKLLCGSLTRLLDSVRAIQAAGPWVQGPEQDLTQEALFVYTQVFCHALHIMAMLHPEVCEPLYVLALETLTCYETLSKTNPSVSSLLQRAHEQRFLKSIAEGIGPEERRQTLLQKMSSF
UniProt Q9UKD1: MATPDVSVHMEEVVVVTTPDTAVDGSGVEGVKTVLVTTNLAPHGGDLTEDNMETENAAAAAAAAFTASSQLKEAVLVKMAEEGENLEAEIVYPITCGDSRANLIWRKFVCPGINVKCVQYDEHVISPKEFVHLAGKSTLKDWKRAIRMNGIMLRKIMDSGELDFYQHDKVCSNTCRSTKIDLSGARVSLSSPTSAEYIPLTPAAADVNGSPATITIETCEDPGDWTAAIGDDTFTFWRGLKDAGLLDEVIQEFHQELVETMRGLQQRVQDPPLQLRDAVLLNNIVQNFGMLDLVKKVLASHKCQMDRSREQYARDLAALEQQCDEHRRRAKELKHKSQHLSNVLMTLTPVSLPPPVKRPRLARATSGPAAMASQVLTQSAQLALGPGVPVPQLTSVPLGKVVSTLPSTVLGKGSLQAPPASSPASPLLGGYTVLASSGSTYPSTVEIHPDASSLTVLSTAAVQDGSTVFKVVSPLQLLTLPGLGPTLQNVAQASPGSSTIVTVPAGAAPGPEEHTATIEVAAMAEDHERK
UniProt Q92616, whole entry, looked up: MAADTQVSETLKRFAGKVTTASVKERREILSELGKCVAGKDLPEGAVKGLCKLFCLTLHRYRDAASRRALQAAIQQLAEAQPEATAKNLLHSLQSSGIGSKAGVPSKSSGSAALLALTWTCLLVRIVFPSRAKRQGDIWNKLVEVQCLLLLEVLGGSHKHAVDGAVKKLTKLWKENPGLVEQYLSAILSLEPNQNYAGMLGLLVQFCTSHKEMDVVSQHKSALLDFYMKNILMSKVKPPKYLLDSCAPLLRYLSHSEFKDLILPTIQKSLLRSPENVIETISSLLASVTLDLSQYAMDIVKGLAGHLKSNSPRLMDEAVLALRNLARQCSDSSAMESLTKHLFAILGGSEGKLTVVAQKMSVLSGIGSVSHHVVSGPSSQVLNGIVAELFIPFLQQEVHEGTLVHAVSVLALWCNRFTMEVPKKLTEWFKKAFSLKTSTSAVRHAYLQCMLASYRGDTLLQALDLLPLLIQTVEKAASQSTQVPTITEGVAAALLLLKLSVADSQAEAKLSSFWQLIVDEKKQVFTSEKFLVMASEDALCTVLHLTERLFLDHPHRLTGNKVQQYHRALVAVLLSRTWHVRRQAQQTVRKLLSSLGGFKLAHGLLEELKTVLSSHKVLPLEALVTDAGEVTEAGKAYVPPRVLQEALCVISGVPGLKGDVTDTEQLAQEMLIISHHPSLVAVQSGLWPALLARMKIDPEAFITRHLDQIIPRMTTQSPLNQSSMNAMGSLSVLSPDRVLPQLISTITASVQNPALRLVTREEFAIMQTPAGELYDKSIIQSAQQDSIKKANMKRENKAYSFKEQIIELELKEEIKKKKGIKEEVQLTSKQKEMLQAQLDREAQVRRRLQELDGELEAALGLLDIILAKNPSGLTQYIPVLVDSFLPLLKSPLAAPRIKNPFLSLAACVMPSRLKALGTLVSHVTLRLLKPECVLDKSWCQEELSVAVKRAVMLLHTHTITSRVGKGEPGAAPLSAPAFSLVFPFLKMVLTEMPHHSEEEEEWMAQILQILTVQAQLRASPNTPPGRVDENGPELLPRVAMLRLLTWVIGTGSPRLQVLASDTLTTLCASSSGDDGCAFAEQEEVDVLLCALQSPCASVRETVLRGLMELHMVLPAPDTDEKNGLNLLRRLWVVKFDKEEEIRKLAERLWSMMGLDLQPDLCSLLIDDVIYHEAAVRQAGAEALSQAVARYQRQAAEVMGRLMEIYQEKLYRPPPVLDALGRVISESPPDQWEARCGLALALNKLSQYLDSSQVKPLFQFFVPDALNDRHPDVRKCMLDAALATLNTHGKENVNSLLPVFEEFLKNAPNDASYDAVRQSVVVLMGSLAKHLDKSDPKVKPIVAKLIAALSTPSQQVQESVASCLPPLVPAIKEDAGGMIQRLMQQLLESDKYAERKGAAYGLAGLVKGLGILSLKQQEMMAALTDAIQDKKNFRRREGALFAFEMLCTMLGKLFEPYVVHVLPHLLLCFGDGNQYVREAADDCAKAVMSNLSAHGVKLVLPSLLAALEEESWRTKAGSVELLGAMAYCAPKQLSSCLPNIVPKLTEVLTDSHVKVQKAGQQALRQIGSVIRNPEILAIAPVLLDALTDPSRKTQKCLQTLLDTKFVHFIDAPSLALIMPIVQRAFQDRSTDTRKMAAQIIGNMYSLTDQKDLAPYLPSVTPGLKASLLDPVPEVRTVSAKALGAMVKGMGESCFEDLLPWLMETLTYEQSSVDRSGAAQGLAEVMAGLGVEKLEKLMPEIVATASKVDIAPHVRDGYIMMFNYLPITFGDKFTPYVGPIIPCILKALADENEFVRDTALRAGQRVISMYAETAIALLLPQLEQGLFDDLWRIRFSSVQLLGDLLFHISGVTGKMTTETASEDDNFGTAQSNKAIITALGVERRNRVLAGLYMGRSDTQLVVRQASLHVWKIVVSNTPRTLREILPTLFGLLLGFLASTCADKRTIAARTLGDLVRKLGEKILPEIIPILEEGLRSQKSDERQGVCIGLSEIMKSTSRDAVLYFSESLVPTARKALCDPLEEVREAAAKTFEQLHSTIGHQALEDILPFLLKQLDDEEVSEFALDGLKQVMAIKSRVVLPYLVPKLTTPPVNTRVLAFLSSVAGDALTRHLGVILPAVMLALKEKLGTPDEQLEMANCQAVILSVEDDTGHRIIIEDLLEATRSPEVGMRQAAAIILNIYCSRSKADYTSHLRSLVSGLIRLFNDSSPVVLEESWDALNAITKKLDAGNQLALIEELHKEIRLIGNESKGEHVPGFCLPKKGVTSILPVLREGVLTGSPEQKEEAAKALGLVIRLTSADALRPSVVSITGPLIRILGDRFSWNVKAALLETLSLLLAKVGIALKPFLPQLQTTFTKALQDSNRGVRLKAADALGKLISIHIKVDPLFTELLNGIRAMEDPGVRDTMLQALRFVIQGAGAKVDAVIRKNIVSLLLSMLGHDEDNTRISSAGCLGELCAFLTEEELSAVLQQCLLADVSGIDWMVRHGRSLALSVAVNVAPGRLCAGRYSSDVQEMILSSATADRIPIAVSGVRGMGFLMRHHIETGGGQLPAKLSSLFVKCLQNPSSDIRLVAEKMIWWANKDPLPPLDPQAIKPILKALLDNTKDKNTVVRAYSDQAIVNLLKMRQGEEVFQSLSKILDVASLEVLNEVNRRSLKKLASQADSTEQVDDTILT
UniProt Q8IWJ2: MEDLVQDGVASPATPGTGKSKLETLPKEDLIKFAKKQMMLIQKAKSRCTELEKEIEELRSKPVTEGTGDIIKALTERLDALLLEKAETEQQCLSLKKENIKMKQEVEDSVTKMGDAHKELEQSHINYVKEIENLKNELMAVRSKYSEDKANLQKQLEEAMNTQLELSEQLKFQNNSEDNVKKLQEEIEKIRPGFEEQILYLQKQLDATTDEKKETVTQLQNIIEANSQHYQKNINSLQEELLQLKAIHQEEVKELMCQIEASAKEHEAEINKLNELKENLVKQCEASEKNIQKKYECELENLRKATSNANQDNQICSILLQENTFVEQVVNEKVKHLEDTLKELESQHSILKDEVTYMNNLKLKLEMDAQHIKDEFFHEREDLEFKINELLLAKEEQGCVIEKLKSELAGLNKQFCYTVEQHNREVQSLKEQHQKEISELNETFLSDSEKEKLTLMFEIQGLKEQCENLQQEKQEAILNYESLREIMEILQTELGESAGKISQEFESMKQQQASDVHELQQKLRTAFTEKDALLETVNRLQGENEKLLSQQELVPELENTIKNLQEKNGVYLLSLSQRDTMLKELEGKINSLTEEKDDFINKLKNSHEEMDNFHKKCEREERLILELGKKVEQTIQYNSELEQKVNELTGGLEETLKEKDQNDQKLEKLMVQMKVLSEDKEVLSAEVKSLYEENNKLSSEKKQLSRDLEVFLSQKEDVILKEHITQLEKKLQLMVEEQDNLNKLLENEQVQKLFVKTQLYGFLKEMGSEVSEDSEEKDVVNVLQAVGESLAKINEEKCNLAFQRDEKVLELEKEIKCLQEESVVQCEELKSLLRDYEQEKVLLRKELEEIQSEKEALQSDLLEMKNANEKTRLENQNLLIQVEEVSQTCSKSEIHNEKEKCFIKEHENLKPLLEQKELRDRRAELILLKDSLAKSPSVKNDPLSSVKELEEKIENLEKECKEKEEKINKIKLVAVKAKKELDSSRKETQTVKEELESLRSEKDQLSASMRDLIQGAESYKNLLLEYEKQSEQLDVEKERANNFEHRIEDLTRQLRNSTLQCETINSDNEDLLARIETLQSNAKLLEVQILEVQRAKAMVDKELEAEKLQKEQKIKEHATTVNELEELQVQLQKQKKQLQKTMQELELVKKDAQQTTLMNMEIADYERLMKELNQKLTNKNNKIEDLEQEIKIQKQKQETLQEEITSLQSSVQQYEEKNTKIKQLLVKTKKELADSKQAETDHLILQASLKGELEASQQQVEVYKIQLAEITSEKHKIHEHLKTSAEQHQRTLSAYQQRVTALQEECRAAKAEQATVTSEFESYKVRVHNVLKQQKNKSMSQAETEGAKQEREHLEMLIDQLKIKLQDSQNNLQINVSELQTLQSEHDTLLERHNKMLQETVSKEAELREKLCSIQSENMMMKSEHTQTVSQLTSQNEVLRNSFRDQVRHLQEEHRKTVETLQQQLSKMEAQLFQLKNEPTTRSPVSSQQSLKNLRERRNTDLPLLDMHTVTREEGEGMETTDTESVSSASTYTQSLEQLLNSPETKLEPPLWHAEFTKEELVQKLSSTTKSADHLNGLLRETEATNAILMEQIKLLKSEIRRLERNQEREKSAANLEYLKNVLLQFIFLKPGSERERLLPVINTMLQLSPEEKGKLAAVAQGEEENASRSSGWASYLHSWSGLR
UniProt O75600: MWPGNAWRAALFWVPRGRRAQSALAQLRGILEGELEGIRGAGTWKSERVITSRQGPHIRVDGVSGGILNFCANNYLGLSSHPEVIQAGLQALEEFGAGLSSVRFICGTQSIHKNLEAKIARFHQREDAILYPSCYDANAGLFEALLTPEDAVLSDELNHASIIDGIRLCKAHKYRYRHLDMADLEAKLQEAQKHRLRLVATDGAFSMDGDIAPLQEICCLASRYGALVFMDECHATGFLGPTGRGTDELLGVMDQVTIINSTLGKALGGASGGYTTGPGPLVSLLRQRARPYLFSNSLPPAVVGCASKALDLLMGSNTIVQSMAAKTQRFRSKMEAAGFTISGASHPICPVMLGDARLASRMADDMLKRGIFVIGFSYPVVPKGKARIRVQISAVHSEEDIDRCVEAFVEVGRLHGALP
UniProt P55789: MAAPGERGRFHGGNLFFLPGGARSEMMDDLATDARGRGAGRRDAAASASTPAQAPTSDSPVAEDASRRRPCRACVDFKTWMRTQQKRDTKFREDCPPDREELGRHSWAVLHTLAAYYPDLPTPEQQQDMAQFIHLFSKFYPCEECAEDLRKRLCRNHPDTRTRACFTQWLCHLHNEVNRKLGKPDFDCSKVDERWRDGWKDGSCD
UniProt P16278, 420-442: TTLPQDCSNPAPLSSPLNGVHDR

compound: ClCC(=O)N[C@H]1CCCc2ccccc12; assay: log2 mean competition ratio of IA-DTB cysteine labelling (DMSO/compound) (log2 ratio); higher = stronger cysteine engagement by compound; details: 50 µM; treatment time: 4 h; cell line lysate: HEK293T
Experimental: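 IA-DTB competitive cysteine chemoproteomics in HEK293T RIPA lysate. Lysates were treated with compound 29 or 30 at 50 or 200 µM for 4 h, then IA-DTB (500 µM, 1 h), trypsin-digested, NeutrAvidin-enriched and analysed by diaPASEF. Competition ratio = intensity DMSO / intensity compound (n=4 treated, n=64 DMSO); binding: mean log2 CR ≥ 1 and p ≤ 0.05 plus QC filters. Target is the cysteine site.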

Row | Target | log2 mean competition ratio
1 | GNL3 C251 (UniProt Q9BVP2) | -0.114
2 | GEMIN4 C382 (UniProt P57678) | -0.206
3 | GFPT1 C254 (UniProt Q06210) | 0.336
4 | GCC1 C460 (UniProt Q96CN9) | 0.538
5 | GOLGA3 C769 (UniProt Q08378) | -0.152
6 | GMEB2 C117 (UniProt Q9UKD1) | -0.29
7 | GCN1 C932 (UniProt Q92616) | -0.215
8 | GIGYF1 C583 (UniProt O75420) | 0.641
9 | GCDH C176 (UniProt Q92947) | 0.257
10 | GNAI1 C254 (UniProt P63096) | 0.193
11 | GPD1L C202 (UniProt Q8N335) | 0.0177
12 | GCN1 C1781 (UniProt Q92616) | -0.0163
13 | GPT2 C281 (UniProt Q8TD30) | 0.384
14 | GCC2 C257 (UniProt Q8IWJ2) | -0.332
15 | GCAT C106 (UniProt O75600) | 0.629
16 | GNAI3 C66 (UniProt P08754) | -0.341
17 | GFER C95 (UniProt P55789) | -0.426
18 | GCFC2 C595 (UniProt P16383) | -0.504
19 | GDE1 C53 (UniProt Q9NZC3) | -0.0435
20 | GLB1 C426 (UniProt P16278) | -0.234

same assay, conditions: 200 µM; treatment time: 4 h; cell line lysate: HEK293T

Row | Target | log2 mean competition ratio
21 | GNL3 C251 (UniProt Q9BVP2) | 0.116
22 | GEMIN4 C382 (UniProt P57678) | 0.087
23 | GFPT1 C254 (UniProt Q06210) | 0.205
24 | GCC1 C460 (UniProt Q96CN9) | -0.192
25 | GOLGA3 C769 (UniProt Q08378) | -0.281
26 | GMEB2 C117 (UniProt Q9UKD1) | 0.182
27 | GCN1 C932 (UniProt Q92616) | 0.229
28 | GIGYF1 C583 (UniProt O75420) | 0.634
29 | GCDH C176 (UniProt Q92947) | -0.131
30 | GNAI1 C254 (UniProt P63096) | -0.168
31 | GPD1L C202 (UniProt Q8N335) | 0.131
32 | GCN1 C1781 (UniProt Q92616) | -0.401
33 | GPT2 C281 (UniProt Q8TD30) | 0.332
34 | GCC2 C257 (UniProt Q8IWJ2) | -0.311
35 | GCAT C106 (UniProt O75600) | 0.165
36 | GNAI3 C66 (UniProt P08754) | 0.0372
37 | GFER C95 (UniProt P55789) | 0.0265
38 | GCFC2 C595 (UniProt P16383) | -0.0181
39 | GDE1 C53 (UniProt Q9NZC3) | -0.144
40 | GLB1 C426 (UniProt P16278) | -0.361
